Experimental findings from the supplement of paper PMC6411743 are described below.

Chains of the proteins cited; added tags and fusions are not shown. Lines headed by an entry give the natural chain unless they say otherwise; changes in a name come on top.
UniProt Q9H930: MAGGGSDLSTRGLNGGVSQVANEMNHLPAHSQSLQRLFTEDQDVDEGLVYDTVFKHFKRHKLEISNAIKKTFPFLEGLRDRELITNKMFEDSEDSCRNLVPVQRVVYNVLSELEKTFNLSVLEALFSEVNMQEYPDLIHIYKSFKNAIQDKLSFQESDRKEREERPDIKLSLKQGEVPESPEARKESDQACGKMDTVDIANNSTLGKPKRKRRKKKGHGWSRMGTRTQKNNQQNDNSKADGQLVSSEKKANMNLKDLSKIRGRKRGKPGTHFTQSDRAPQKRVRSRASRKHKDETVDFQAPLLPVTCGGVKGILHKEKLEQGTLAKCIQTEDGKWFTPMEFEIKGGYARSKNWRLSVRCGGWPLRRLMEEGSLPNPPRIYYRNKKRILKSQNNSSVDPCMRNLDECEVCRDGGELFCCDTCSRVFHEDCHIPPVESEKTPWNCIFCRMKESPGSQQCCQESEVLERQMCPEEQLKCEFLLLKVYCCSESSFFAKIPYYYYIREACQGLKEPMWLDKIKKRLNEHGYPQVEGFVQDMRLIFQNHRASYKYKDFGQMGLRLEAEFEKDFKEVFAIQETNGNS
UniProt P07947, whole entry, looked up: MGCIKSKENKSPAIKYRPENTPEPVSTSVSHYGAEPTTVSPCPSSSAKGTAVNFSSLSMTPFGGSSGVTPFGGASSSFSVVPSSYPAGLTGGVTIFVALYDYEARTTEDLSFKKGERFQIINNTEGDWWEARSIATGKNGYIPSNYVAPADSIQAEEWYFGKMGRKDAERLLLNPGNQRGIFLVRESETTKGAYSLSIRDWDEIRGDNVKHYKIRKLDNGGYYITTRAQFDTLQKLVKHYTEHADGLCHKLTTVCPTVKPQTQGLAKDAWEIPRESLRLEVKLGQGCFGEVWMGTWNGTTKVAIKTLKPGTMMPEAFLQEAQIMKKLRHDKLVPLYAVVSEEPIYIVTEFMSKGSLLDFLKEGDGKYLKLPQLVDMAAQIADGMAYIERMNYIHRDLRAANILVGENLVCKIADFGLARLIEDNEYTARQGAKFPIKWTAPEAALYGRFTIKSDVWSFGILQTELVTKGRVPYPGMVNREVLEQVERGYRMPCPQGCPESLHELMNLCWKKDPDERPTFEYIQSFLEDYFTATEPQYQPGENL
UniProt Q01433: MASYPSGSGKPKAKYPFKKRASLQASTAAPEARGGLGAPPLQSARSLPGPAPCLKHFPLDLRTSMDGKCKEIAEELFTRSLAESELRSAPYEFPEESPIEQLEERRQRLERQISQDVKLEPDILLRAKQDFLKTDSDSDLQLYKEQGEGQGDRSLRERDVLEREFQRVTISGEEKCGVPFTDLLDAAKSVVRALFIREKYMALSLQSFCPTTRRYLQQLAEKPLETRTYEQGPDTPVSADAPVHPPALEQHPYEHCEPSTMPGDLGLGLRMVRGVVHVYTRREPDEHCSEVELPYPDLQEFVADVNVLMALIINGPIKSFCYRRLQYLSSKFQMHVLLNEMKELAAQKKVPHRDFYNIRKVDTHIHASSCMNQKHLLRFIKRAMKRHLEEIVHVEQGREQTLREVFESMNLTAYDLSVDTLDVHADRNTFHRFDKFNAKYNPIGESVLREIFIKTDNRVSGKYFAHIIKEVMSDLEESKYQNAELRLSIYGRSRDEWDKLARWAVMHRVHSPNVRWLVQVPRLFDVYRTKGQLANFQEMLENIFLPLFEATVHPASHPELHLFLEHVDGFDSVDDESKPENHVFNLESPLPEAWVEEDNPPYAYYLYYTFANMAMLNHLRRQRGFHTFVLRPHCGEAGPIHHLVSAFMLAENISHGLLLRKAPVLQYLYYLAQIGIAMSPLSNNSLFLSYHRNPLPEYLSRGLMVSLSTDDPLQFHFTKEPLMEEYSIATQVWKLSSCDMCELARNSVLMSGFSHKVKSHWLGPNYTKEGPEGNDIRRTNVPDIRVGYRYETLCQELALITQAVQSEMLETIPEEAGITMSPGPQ
UniProt Q93009, whole entry, looked up: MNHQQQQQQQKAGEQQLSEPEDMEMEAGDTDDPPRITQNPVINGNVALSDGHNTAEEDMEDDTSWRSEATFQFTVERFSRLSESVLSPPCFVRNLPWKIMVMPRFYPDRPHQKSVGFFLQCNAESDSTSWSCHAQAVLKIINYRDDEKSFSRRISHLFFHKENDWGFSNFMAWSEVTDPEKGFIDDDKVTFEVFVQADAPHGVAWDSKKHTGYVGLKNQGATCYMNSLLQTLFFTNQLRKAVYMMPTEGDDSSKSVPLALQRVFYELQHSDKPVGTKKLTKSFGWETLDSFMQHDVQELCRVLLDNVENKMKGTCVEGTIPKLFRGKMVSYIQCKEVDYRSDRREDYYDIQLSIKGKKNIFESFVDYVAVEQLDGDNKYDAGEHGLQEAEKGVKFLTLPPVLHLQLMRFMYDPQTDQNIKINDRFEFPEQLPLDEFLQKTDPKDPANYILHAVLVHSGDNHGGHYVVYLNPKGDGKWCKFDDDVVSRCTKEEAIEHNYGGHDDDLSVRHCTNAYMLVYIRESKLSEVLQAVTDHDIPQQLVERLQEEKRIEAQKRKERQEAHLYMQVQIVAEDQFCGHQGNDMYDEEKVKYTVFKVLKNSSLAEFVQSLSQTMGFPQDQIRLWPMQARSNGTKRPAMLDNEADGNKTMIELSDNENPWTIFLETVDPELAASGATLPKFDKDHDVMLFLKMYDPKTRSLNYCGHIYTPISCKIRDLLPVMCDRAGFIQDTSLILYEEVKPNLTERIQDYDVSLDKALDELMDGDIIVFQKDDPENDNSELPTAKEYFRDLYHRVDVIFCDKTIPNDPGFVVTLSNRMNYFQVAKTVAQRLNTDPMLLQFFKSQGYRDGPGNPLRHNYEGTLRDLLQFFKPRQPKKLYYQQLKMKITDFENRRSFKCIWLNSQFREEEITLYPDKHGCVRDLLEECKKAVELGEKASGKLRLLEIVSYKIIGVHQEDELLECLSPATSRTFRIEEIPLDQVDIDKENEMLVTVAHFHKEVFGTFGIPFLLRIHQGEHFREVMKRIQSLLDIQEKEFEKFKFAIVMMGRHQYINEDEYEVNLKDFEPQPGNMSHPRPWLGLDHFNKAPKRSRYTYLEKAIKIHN
UniProt Q9UGJ1, whole entry: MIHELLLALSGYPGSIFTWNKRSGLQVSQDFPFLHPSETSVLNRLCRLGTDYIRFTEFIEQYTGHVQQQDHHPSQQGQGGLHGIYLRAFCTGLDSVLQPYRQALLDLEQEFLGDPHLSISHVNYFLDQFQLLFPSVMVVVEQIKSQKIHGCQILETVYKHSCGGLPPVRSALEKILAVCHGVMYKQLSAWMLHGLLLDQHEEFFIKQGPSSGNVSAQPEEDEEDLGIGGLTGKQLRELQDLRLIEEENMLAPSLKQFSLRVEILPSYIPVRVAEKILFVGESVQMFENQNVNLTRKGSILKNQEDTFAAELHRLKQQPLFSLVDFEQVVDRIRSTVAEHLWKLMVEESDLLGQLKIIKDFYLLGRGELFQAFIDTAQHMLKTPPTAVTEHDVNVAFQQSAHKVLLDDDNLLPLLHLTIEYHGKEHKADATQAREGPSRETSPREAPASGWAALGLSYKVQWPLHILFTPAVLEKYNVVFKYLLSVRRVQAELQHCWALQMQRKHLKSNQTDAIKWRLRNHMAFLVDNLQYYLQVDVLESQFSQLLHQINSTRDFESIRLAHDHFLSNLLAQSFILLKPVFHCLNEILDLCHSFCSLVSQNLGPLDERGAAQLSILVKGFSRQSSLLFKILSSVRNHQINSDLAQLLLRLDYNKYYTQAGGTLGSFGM
UniProt Q8NBJ7: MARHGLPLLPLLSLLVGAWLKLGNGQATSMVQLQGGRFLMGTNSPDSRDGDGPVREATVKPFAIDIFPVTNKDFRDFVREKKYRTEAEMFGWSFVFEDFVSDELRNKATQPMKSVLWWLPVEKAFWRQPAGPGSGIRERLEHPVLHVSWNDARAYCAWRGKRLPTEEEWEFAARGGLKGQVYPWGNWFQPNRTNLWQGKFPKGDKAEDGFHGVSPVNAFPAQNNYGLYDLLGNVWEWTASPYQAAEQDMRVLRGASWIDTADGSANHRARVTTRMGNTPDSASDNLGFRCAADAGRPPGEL
UniProt Q96AJ1: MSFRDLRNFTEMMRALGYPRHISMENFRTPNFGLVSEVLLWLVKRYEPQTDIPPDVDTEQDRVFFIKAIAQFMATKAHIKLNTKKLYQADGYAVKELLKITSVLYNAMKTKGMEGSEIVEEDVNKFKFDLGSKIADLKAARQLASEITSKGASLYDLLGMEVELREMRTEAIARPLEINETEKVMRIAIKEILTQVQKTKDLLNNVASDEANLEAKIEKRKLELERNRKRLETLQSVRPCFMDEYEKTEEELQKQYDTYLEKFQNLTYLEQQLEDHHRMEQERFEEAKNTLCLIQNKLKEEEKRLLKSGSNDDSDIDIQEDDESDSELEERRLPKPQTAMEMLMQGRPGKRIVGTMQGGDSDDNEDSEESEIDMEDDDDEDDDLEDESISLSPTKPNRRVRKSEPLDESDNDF
UniProt Q9UQB8: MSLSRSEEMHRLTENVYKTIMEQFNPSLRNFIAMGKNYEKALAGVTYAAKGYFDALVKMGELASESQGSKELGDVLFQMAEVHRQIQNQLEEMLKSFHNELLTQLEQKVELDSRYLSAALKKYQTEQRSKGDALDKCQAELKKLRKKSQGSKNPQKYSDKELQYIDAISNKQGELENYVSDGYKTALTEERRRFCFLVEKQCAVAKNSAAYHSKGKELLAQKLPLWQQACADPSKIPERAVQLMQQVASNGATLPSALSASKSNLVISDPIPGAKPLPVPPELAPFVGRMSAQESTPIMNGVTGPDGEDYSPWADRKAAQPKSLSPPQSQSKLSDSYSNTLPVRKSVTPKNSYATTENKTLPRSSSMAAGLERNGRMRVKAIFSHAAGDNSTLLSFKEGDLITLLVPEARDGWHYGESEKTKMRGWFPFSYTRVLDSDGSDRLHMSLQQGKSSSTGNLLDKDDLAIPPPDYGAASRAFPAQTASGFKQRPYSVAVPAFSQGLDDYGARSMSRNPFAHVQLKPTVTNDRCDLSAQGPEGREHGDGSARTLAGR
UniProt Q16543: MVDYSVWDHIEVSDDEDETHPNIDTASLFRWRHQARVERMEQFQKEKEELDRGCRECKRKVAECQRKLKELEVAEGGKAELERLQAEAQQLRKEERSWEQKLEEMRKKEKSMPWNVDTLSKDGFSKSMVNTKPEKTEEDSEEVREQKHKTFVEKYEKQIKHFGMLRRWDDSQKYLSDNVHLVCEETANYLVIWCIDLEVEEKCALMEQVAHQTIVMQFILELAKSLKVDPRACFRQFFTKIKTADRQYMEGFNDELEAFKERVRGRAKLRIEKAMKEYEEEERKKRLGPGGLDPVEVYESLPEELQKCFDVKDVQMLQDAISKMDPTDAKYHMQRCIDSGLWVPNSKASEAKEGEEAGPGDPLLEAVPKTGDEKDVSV
UniProt Q9NWL6: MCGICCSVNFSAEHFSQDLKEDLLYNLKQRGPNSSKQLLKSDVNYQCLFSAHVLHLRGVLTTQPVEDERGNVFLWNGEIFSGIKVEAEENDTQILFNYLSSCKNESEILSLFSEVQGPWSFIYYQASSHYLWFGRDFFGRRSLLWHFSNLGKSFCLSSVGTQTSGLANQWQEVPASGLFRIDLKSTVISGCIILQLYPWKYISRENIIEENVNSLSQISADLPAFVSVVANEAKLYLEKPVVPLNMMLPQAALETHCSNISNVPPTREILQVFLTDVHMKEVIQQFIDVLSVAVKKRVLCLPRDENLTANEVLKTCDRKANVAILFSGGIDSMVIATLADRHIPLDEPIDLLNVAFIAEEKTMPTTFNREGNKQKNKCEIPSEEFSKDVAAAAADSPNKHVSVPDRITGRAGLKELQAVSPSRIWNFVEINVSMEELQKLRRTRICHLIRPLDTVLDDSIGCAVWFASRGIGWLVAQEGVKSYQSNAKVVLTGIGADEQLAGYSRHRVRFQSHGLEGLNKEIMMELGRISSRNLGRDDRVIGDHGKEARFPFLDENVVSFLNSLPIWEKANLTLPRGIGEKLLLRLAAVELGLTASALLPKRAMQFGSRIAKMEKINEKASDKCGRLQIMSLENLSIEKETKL
UniProt Q96J42: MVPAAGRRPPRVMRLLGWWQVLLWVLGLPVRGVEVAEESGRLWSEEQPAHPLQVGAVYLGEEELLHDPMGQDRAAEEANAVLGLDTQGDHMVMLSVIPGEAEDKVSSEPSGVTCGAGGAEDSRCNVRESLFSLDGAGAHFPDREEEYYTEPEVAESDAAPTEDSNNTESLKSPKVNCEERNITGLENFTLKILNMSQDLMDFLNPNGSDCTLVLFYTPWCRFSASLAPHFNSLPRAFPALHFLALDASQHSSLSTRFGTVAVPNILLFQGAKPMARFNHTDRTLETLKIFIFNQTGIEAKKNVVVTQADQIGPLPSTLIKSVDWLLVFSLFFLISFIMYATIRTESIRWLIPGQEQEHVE

± gives the standard deviation of the averaged measurements. The list shows a part of the results, in another mix than the full data.

Compound in the experiment: Nc1ncnc2c1ncn2[C@@H]1O[C@H](COP(=O)(O)OP(=O)(O)OP(=O)(O)O)[C@@H](O)[C@H]1O [adenosine triphosphate]
Nature of the experiment: NP40-soluble protein abundance relative to vehicle (solubility fold change) (ratio); higher = more soluble protein in presence of ATP. The note with it: concentration: 4mM. The procedure, abridged:
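Data come from three independent experiments in which Dounce-homogenised Jurkat crude lysate was treated at eight concentrations from 0.1 to 10 mM. Treatment ran 10 min at room temperature and then 3 min at 37 °C, after which 0.8% NP40 and benzonase were added for 60 min at 4 °C before ultracentrifugation. The supernatant underwent TMT labelling and LC-MS/MS, and vsn-normalised intensities were expressed as fold change against the detergent-processed vehicle in each replicate.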
In the case of “H7BYP4 and related entries (UniProt Q9H930)”, the NP40-soluble protein abundance came to 1 ± 0.014.
With “J3QRU1 and related entries (UniProt P07947)” the figure was 1.04 ± 0.11.
With “H0Y5D5 and related entries (UniProt Q9ULV3)” the figure was 0.963 ± 0.015; with UniProt I3L0E3, 0.948 ± 0.076.
With “H0Y360 and related entries (UniProt Q01433)” the figure was 0.936 ± 0.014.
Take “H3BQD1 and related entries (UniProt Q93009)”: the NP40-soluble protein abundance came out at 1 ± 0.077.
Consider “H3BPU4 and related entries (UniProt Q9UGJ1)”, for which the NP40-soluble protein abundance was 1.1 ± 0.073.
Take “H0Y4B0 and related entries (UniProt O43414)”: the NP40-soluble protein abundance stood at 1.03 ± 0.038.
To “K7EPA3 and related entries (UniProt Q9NX61)” belongs 0.906 ± 0.096; to “J3KQJ1 and related entries (UniProt Q8NBJ7)”, 0.927 ± 0.025.
Regarding “M0QX46 and related entries (UniProt Q6UUV9)”, the NP40-soluble protein abundance was found to be 1.02 ± 0.048.
To “I3L121 and related entries (UniProt Q96AJ1)” belongs 1.01 ± 0.13; to “I3L4C2 and related entries (UniProt Q9UQB8)”, 0.9393 ± 0.0064; to “K7EL68 and related entries (UniProt Q16543)”, 0.911 ± 0.033.
With “H7C3H7 and related entries (UniProt Q12873)” the figure was 1.29 ± 0.02.
To “H7C2Q8 and related entries (UniProt Q99848)” belongs 1.22 ± 0.17; to “I3L2C7 and related entries (UniProt P57678)”, 0.93 ± 0.058; to L0R819 (UniProt Q9NWL6), 0.956 ± 0.059.
For “H0Y997 and related entries (UniProt Q96J42)”, the NP40-soluble protein abundance was 0.86 ± 0.12.
